Results as given in the supplement of paper PMC10849652.
Some of the results follow.

Chains of the proteins cited; added tags and fusions are not shown. Lines headed by an entry give the natural chain unless they say otherwise; changes in a name come on top.
UniProt P13716: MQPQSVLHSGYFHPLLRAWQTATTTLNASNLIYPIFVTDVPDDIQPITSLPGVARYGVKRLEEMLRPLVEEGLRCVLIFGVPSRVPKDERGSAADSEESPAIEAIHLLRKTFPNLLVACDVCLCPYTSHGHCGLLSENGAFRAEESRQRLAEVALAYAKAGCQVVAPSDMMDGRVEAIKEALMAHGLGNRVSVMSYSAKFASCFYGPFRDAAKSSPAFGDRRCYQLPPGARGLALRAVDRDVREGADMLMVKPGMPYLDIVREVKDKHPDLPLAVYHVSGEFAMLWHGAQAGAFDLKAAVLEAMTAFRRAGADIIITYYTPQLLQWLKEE
UniProt P51649: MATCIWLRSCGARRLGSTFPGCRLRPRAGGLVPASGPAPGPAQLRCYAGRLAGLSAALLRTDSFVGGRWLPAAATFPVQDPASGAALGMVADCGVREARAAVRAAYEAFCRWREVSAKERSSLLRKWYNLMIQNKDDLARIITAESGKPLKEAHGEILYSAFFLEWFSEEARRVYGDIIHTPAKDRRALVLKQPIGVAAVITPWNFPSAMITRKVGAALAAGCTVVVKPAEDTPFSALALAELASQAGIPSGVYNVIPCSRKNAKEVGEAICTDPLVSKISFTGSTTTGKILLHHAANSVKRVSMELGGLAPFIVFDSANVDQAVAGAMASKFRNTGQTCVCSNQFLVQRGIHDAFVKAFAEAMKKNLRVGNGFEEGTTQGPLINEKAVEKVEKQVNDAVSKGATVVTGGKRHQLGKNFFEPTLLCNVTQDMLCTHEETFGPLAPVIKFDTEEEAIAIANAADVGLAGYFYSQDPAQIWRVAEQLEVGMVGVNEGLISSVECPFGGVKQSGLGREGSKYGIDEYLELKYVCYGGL
UniProt P00352: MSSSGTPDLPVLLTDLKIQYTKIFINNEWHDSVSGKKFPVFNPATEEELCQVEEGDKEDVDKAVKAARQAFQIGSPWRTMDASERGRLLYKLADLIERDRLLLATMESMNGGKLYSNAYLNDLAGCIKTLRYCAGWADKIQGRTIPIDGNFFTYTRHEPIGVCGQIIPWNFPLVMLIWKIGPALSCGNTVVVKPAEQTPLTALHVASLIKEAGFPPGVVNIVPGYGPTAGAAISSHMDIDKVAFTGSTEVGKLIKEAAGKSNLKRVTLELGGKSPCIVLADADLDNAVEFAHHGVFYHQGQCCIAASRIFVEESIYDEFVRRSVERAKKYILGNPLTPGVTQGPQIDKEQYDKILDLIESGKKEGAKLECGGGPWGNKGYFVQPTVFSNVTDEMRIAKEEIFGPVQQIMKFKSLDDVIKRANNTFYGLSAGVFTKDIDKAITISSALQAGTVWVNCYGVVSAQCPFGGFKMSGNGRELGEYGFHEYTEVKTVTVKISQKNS
UniProt Q8N142: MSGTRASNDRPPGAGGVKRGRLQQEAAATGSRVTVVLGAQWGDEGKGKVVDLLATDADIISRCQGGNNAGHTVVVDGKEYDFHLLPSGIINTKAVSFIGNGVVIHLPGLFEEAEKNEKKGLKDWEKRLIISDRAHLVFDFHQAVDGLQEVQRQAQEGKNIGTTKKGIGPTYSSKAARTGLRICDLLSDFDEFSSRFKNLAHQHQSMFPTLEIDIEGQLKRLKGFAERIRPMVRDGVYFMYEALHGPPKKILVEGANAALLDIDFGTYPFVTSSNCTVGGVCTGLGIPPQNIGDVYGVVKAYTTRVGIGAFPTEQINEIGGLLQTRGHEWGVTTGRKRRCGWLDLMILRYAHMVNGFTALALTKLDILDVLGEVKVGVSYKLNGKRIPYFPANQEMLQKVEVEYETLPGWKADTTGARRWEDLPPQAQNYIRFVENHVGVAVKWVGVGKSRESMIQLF
UniProt P14550: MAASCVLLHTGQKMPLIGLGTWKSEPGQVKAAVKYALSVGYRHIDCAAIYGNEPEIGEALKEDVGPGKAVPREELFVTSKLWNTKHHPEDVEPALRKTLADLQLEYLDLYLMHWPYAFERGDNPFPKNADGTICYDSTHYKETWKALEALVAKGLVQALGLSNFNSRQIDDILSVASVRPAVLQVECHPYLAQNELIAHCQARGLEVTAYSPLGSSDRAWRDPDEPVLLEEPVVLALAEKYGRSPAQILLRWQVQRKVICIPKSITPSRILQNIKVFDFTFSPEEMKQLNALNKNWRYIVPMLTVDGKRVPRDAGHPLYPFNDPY
UniProt Q5I7T1: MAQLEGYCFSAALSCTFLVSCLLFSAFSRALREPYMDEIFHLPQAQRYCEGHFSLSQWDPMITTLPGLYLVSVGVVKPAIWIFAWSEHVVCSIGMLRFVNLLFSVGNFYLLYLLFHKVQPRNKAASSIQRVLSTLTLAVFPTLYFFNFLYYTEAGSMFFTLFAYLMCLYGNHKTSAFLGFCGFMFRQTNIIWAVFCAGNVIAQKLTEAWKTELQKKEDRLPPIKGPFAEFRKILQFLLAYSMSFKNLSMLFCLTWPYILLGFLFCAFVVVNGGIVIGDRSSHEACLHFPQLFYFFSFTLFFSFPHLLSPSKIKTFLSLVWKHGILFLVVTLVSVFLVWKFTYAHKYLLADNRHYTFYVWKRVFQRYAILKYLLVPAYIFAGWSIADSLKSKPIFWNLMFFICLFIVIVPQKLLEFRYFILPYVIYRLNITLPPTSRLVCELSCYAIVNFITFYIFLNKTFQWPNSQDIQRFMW
UniProt P35573: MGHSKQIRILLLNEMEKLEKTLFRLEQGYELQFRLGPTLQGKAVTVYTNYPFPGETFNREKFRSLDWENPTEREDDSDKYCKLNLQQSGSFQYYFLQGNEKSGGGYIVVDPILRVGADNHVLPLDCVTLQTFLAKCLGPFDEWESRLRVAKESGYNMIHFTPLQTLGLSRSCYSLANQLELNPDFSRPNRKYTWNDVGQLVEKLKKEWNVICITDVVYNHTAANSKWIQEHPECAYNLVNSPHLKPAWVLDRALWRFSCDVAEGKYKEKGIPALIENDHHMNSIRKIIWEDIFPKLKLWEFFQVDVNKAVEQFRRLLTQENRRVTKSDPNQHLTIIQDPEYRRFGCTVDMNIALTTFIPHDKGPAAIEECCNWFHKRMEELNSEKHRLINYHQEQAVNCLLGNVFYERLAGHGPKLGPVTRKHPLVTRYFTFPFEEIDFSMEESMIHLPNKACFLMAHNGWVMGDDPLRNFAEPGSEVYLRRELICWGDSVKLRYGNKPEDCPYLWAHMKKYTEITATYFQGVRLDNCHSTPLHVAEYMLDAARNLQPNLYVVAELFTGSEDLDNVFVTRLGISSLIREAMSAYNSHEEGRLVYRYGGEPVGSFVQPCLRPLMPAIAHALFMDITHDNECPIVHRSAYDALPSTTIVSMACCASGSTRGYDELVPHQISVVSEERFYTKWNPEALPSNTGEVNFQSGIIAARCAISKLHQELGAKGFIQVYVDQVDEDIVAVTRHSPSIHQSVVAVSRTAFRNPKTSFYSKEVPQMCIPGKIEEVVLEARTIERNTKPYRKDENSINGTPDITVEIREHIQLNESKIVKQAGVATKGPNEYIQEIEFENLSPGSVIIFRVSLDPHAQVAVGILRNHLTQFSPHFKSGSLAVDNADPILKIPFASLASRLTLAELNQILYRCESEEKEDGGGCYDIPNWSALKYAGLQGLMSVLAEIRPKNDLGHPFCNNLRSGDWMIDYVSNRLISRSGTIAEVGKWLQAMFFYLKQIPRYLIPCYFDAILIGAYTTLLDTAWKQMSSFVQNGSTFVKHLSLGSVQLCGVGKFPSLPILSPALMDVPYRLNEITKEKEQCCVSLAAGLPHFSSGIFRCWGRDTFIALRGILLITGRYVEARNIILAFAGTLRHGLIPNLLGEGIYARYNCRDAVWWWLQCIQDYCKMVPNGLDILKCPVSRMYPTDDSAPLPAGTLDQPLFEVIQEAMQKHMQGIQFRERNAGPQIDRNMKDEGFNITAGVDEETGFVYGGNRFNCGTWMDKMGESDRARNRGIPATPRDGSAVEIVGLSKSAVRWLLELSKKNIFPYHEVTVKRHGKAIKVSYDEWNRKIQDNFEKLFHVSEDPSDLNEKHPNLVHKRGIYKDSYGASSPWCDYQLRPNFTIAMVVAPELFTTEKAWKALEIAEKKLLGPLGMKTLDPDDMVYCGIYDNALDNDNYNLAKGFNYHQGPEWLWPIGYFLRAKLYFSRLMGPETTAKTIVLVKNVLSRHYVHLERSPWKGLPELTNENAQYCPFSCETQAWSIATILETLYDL
UniProt Q02952: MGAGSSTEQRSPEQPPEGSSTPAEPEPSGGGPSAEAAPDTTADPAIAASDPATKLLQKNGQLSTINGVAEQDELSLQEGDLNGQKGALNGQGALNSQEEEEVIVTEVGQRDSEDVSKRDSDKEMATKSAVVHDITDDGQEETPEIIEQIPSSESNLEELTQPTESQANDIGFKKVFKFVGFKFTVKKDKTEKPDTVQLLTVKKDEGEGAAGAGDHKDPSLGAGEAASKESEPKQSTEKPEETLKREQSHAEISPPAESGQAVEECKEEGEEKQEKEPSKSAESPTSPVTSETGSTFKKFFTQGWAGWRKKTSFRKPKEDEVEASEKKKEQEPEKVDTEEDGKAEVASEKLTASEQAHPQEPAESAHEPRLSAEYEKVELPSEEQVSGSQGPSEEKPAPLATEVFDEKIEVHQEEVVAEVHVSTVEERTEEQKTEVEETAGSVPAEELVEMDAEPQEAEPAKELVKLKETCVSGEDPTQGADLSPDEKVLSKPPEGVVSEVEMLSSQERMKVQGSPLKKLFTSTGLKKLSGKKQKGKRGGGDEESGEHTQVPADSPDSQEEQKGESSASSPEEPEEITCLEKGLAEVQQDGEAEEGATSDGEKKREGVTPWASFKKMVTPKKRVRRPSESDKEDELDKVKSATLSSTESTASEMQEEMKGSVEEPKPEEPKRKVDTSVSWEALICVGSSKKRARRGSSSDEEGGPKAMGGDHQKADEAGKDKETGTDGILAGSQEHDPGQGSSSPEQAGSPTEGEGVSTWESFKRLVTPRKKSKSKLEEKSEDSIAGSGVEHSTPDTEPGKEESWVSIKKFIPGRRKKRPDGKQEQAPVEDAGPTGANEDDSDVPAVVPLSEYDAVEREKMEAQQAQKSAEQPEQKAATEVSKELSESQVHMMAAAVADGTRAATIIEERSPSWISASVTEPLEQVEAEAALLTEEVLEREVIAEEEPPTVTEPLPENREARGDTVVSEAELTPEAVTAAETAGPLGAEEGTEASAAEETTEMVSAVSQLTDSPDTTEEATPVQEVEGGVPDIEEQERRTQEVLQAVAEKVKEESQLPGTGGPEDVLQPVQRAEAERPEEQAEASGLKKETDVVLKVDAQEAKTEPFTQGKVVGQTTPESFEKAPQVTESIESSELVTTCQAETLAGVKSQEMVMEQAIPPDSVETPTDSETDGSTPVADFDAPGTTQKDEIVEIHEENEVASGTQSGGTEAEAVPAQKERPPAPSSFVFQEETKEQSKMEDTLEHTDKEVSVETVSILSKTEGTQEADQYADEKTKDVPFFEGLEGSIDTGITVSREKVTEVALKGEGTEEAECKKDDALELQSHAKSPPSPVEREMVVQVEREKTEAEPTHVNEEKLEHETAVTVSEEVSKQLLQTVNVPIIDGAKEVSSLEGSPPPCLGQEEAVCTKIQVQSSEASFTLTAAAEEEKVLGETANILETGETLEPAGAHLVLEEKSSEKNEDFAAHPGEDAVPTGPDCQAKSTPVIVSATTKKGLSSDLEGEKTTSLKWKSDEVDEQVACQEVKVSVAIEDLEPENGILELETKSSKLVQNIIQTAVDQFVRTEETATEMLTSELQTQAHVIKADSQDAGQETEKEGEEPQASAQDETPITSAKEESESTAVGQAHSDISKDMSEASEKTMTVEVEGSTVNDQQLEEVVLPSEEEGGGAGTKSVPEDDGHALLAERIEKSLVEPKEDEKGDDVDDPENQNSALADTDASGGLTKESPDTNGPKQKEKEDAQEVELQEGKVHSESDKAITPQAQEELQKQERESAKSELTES

Experiments:
Experiment in all cases: log2 fold change, soluble protein after heating vs DMSO (PISA); higher = thermal stabilisation; K562 cells, 10 uM, 30 min; active = over 0.2 and 3.5 SD of the protein, either way, in both replicates (recomputed)
saracatinib = compound: CN1CCN(CCOc2cc(OC3CCOCC3)c3c(Nc4c(Cl)ccc5c4OCO5)ncnc3c2)CC1 [saracatinib]
Outline: (§1)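 For each measurement, 10 μM compound was applied for 30 min to K562 cells at 2×10^6 cells/mL. Aliquots were heated for 3 min across 48°C-58°C, pooled, and extracted in PBS with 0.5% NP-40 at 4°C; the supernatant after 21,000xg for 90 min was soluble protein. This was quantified by TMTpro 16plex LC-MS/MS with channel sums equalised, and thermal stability was reported relative to control samples from duplicates, on a log2 fold-change scale.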

sotrastaurin = compound: CN1CCN(c2nc(C3=C(c4c[nH]c5ccccc45)C(=O)NC3=O)c3ccccc3n2)CC1 [sotrastaurin]
Outline: as §1

alvocidib = compound: CN1CC[C@H](c2c(O)cc(O)c3c(=O)cc(-c4ccccc4Cl)oc23)[C@H](O)C1 [alvocidib]
Outline: as §1

Tubastatin A = compound: CN1CCc2c(c3ccccc3n2Cc2ccc(C(=O)NO)cc2)C1 [Tubastatin A]
Outline: as §1

[1] = compound: CNC(=O)C1=CC=CC=C1NC2=NC(=NC=C2Cl)NC3=C(C=C(C=C3)N4CCOCC4)OC
Outline: as §1

defactinib = compound: CNC(=O)c1ccc(Nc2ncc(C(F)(F)F)c(NCc3nccnc3N(C)S(C)(=O)=O)n2)cc1 [defactinib]
Outline: as §1

rucaparib = compound: CNCc1ccc(-c2[nH]c3cc(F)cc4c3c2CCNC4=O)cc1 [rucaparib]
Outline: as §1

[2] = compound: CNc1nc(-c2ccc3c(N)n[nH]c3c2)cc(N2C[C@@H](C(=O)NC3CCCCC3)CC[C@H]2C)n1
Outline: as §1

encorafenib = compound: COC(=O)N[C@@H](C)CNc1nccc(-c2cn(C(C)C)nc2-c2cc(Cl)cc(NS(C)(=O)=O)c2F)n1 [encorafenib]
Outline: as §1

[3] = compound: COC(=O)[C@H](CCSC)NC(=O)C1=C(C=C(C=C1)NC[C@H](CS)N)C2=CC=CC=C2
Outline: as §1

[4] = compound: COC1=CC=C(C=C1)CN2C=CC3=C2C=C(C=C3)C(=O)NO
Outline: as §1

filanesib = compound: CON(C)C(=O)N1N=C(c2cc(F)ccc2F)S[C@@]1(CCCN)c1ccccc1 [filanesib]
Outline: as §1

zotarolimus = compound: CO[C@H]1C[C@@H]2CC[C@@H](C)[C@@](O)(O2)C(=O)C(=O)N2CCCC[C@H]2C(=O)O[C@H]([C@H](C)C[C@@H]2CC[C@H](n3cnnn3)[C@H](OC)C2)CC(=O)[C@H](C)/C=C(\C)[C@@H](O)[C@@H](OC)C(=O)[C@H](C)C[C@H](C)/C=C/C=C/C=C/1C [zotarolimus]
Outline: as §1

idasanutlin = compound: COc1cc(C(=O)O)ccc1NC(=O)[C@@H]1N[C@@H](CC(C)(C)C)[C@](C#N)(c2ccc(Cl)cc2F)[C@H]1c1cccc(Cl)c1F [idasanutlin]
Outline: as §1

alisertib = compound: COc1cc(Nc2ncc3c(n2)-c2ccc(Cl)cc2C(c2c(F)cccc2OC)=NC3)ccc1C(=O)O [alisertib]
Outline: as §1

[5] = compound: COc1cc2nc(-c3cc(F)ccc3O)nc(N[C@@H]3CNC[C@H]3C(C)(C)O)c2cc1OC
Outline: as §1

gefitinib = compound: COc1cc2ncnc(Nc3ccc(F)c(Cl)c3)c2cc1OCCCN1CCOCC1 [gefitinib]
Outline: as §1

[6] = compound: COc1cccc2cc(-c3nc([C@H]4CC[C@H](C(=O)O)CC4)n4ncnc(N)c34)[nH]c12
Outline: as §1

lapatinib = compound: CS(=O)(=O)CCNCc1ccc(-c2ccc3ncnc(Nc4ccc(OCc5cccc(F)c5)c(Cl)c4)c3c2)o1 [lapatinib]
Outline: as §1

pictilisib = compound: CS(=O)(=O)N1CCN(Cc2cc3nc(-c4cccc5[nH]ncc45)nc(N4CCOCC4)c3s2)CC1 [pictilisib]
Outline: as §1

Measured: log2 fold change

ANAPC1 (UniProt Q9H1A4)
inactive: saracatinib -0.011 | sotrastaurin -0.025 | alvocidib -0.022 | Tubastatin A 0.045 | [1] 0.021 | defactinib 0.017 | rucaparib 0.027 | [2] -0.033 | encorafenib 0.037 | [3] -0.005 | [4] 0.008 | filanesib 0.046 | zotarolimus 0.025 | idasanutlin 0.024 | alisertib -0.072 | [5] 0.03 | gefitinib -0.012 | [6] -0.025 | lapatinib 0.059 | pictilisib -0.018

ALAD isoform 2 (UniProt P13716)
inactive: saracatinib -0.023 | sotrastaurin 0.01 | alvocidib 0.02 | Tubastatin A 0.002 | [1] -0.084 | defactinib 0.008 | rucaparib -0.004 | [2] -0.076 | encorafenib 0.003 | [3] 0.002 | [4] 0.032 | filanesib -0.09 | zotarolimus 0.069 | idasanutlin -0.001 | alisertib 0.035 | [5] -0.006 | gefitinib -0.027 | [6] 0.021 | lapatinib 0.012 | pictilisib -0.026

AKR1B1 (UniProt P15121)
inactive: saracatinib 0.065 | sotrastaurin 0.017 | alvocidib 0.049 | Tubastatin A 0.019 | [1] -0.022 | defactinib 0.003 | rucaparib 0.014 | [2] -0.029 | encorafenib -0.016 | [3] 0.097 | [4] -0.051 | filanesib 0.003 | zotarolimus -0.027 | idasanutlin 0.021 | alisertib -0.049 | [5] -0.106 | gefitinib 0.027 | [6] 0.021 | lapatinib 0.036 | pictilisib 0.066

AKAP1 (UniProt Q92667)
inactive: saracatinib -0.132 | sotrastaurin -0.112 | alvocidib 0.027 | Tubastatin A 0.027 | [1] -0.024 | defactinib -0.019 | rucaparib 0.195 | [2] 0.057 | encorafenib 0.02 | [3] -0.024 | [4] -0.015 | filanesib 0.128 | zotarolimus 0.082 | idasanutlin 0.054 | alisertib -0.064 | [5] -0.206 | gefitinib 0.024 | [6] -0.111 | lapatinib 0.072 | pictilisib 0.013

Copied from the results shown (two entries):
ANAPC1 (UniProt Q9H1A4)
inactive: saracatinib -0.011 | sotrastaurin -0.025 | alvocidib -0.022 | Tubastatin A 0.045 | [1] 0.021 | defactinib 0.017 | rucaparib 0.027 | [2] -0.033 | encorafenib 0.037 | [3] -0.005 | [4] 0.008 | filanesib 0.046 | zotarolimus 0.025 | idasanutlin 0.024 | alisertib -0.072 | [5] 0.03 | gefitinib -0.012 | [6] -0.025 | lapatinib 0.059 | pictilisib -0.018

ALAD isoform 2 (UniProt P13716)
inactive: saracatinib -0.023 | sotrastaurin 0.01 | alvocidib 0.02 | Tubastatin A 0.002 | [1] -0.084 | defactinib 0.008 | rucaparib -0.004 | [2] -0.076 | encorafenib 0.003 | [3] 0.002 | [4] 0.032 | filanesib -0.09 | zotarolimus 0.069 | idasanutlin -0.001 | alisertib 0.035 | [5] -0.006 | gefitinib -0.027 | [6] 0.021 | lapatinib 0.012 | pictilisib -0.026

The list goes on:

ALDH5A1 isoform 2 (UniProt P51649)
inactive: saracatinib 0.026 | sotrastaurin 0.022 | alvocidib -0.08 | Tubastatin A -0.005 | [1] 0.018 | defactinib -0.015 | rucaparib -0.007 | [2] -0.036 | encorafenib -0.004 | [3] -0.001 | [4] 0.055 | filanesib -0.032 | zotarolimus -0.037 | idasanutlin -0.034 | alisertib 0.003 | [5] -0.045 | gefitinib 0.003 | [6] 0.041 | lapatinib 0.042 | pictilisib -0.002

ALDH1A2 (UniProt O94788)
inactive: saracatinib 0.017 | sotrastaurin 0.006 | alvocidib -0.033 | Tubastatin A -0.005 | [1] 0.017 | defactinib -0.014 | rucaparib -0.08 | [2] -0.001 | encorafenib -0.016 | [3] -0.004 | [4] 0.047 | filanesib -0.074 | zotarolimus -0.009 | idasanutlin -0.026 | alisertib 0.001 | [5] -0.003 | gefitinib 0.016 | [6] 0.058 | lapatinib -0.004 | pictilisib 0.091

ALDH1A1 (UniProt P00352)
inactive: saracatinib 0.04 | sotrastaurin 0.037 | alvocidib 0 | Tubastatin A 0.003 | [1] 0.03 | defactinib -0.005 | rucaparib -0.041 | [2] -0.002 | encorafenib -0.044 | [3] -0.002 | [4] 0.096 | filanesib -0.073 | zotarolimus 0.014 | idasanutlin -0.059 | alisertib -0.038 | [5] 0.041 | gefitinib 0.016 | [6] 0.043 | lapatinib 0.002 | pictilisib 0.139

ADSS1 (UniProt Q8N142)
inactive: saracatinib 0.044 | sotrastaurin 0.051 | alvocidib -0.011 | Tubastatin A 0.034 | [1] -0.018 | defactinib 0 | rucaparib -0.029 | [2] -0.031 | encorafenib 0.003 | [3] 0.029 | [4] -0.009 | filanesib -0.06 | zotarolimus -0.055 | idasanutlin -0.129 | alisertib 0.039 | [5] 0.161 | gefitinib 0.022 | [6] 0.026 | lapatinib 0.015 | pictilisib 0.056

AKR1A1 (UniProt P14550)
inactive: saracatinib 0.006 | sotrastaurin 0.018 | alvocidib -0.101 | Tubastatin A 0.011 | [1] -0.019 | defactinib -0.042 | rucaparib -0.071 | [2] -0.009 | encorafenib 0.007 | [3] -0.007 | [4] 0.045 | filanesib -0.048 | zotarolimus -0.003 | idasanutlin -0.081 | alisertib -0.03 | [5] 0.054 | gefitinib 0.02 | [6] 0.043 | lapatinib 0.004 | pictilisib 0.017

AKT1S1 isoform 3 (UniProt Q96B36)
inactive: saracatinib 0.022 | sotrastaurin 0.048 | alvocidib 0.001 | Tubastatin A -0.032 | [1] -0.014 | defactinib 0.006 | rucaparib -0.033 | [2] 0.077 | encorafenib -0.042 | [3] 0.025 | [4] -0.085 | filanesib 0.045 | zotarolimus -0.003 | idasanutlin -0.044 | alisertib -0.028 | [5] 0 | gefitinib 0.019 | [6] 0.069 | lapatinib 0.011 | pictilisib 0.054

ALG10B (UniProt Q5I7T1)
inactive: saracatinib 0.029 | sotrastaurin -0.018 | alvocidib 0.03 | Tubastatin A -0.042 | [1] 0.019 | defactinib 0.128 | rucaparib -0.023 | [2] 0.014 | encorafenib -0.014 | [3] -0.151 | [4] -0.012 | filanesib -0.077 | zotarolimus -0.1 | idasanutlin -0.048 | alisertib -0.024 | [5] 0.024 | gefitinib -0.006 | [6] 0.15 | lapatinib 0.017 | pictilisib 0.01

ADSS2 (UniProt P30520)
inactive: saracatinib -0.023 | sotrastaurin 0.025 | alvocidib -0.006 | Tubastatin A 0.004 | [1] -0.022 | defactinib -0.033 | rucaparib -0.096 | [2] 0.021 | encorafenib -0.018 | [3] 0.011 | [4] -0.002 | filanesib -0.036 | zotarolimus -0.009 | idasanutlin -0.054 | alisertib -0.048 | [5] 0.059 | gefitinib 0.024 | [6] 0.019 | lapatinib 0.003 | pictilisib 0.037

AGL (UniProt P35573)
inactive: saracatinib -0.16 | sotrastaurin -0.129 | alvocidib 0.064 | Tubastatin A 0.059 | [1] 0.072 | defactinib 0.061 | rucaparib 0.148 | [2] 0.086 | encorafenib 0.085 | [3] -0.024 | [4] 0.036 | filanesib 0.155 | zotarolimus 0.047 | idasanutlin 0.177 | alisertib -0.024 | [5] -0.181 | gefitinib 0.027 | [6] -0.13 | lapatinib 0.082 | pictilisib 0.186

AKAP12 (UniProt Q02952)
inactive: saracatinib 0.039 | sotrastaurin -0.121 | alvocidib -0.048 | Tubastatin A -0.001 | [1] 0.01 | defactinib 0.008 | rucaparib -0.037 | [2] -0.048 | encorafenib -0.013 | [3] -0.016 | [4] -0.257 | filanesib -0.01 | zotarolimus -0.056 | idasanutlin 0.186 | alisertib 0.059 | [5] 0.031 | gefitinib -0.071 | [6] 0.084 | lapatinib -0.004 | pictilisib 0.202

ALG12 (UniProt Q9BV10)
inactive: saracatinib 0.069 | sotrastaurin 0.205 | alvocidib 0.152 | Tubastatin A 0.02 | [1] 0.031 | defactinib -0.005 | rucaparib -0.134 | [2] 0.014 | encorafenib 0.125 | [3] -0.003 | [4] -0.093 | filanesib -0.168 | zotarolimus 0.083 | idasanutlin -0.049 | alisertib 0.006 | [5] 0 | [6] 0.112 | lapatinib -0.014

AFP (UniProt P02771)
inactive: saracatinib 0.548 | sotrastaurin 0.318 | alvocidib 0.033 | Tubastatin A -0.203 | [1] 0.22 | defactinib -0.039 | rucaparib -0.378 | [2] -0.033 | encorafenib -0.009 | [3] 0.207 | [4] -0.068 | filanesib 0.198 | zotarolimus -0.107 | idasanutlin 0.019 | alisertib -0.129 | [5] -0.044 | gefitinib -0.112 | [6] 0.374 | lapatinib 0.021 | pictilisib -0.012
